Source: publication doi:10.1101/2021.05.25.445618
Results are given in words; binding and its absence hold for the method and conditions named. Binding seen in cells or lysates may run through a third protein. These calls come from enrichment with a bait or labelling near it, and not all partners need be listed. For part of these data: Sequences can lack the tags named with a protein.

B1: LexA, the repressor of the SOS regulon (protein, UniProt Q8Y7H7 1-204)
chain: MKISKRQQDIYEFIKSEVKEKGYPPSVREIGEAVGLASSSTVHGHLARLEGKGLIRRDPTKPRAIEILSLEDEAETPNVVNIPIIGKVTAGMPITAIENIDEYFPLPEYMAAGETNVFMLEIDGESMINAGILDGDKVIVRQESSAINGEIVVAMTDENEATCKRFYKEANHFRLQPENDALEPILLNNVTILGKVIGLYRDIR
B2: catalase (enzyme, UniProt Q8Y3P9 1-488)
chain: MTDRKNLTTNQGVPVGDNQNSMTAGRKGPTLIEDYVLIEKLAHFDRERVPERVVHARGAGAHGKFVTKKSMKKYTMAKFLQEEGTETEVFARFSTVIHGQHSPETLRDPRGFSVKFYTEEGNYDFVGNNLPVFFIRDAIKFPDVIHSLKPDPRTNIQDGNRYWDFFSLTPEATTMIMYLFSDEGTPASYREVRGSSVHAFKWINEEGKTVYVKLRWVPKAGIVNLSTEQASQIQAKEFNHASRDLYEAIENGDYPEWDLYVQVLDPKDLDSFDFNPLDATKDWFEDVFPYEHVGTMTLDRNPDNIFAETESVGFNPGVLVRGMLPSEDRLLQGRLFSYSDTQRHRVGPNYLQLPINSPKAPVANNQRDGHMPFKQQTSSINYEPNSYDTEPKENPAFIEPEQEIRGDISGRLIAEKPNNFGHAKEVWDRYSNAERAALVKNIVDDWSQVREDIKIRNLRNFYQVDPEFASRVAAGTGINLEEHVTDLK
B3: Lmo1515 CymR analog (protein, UniProt Q8Y711 1-140)
chain: MKITTKGRYGLTITLELAKRIGDGPISLRSIAQDKNLSEHYLEQLIGPLRNAGIVKSIRGAHGGYVLNGDPEKITAGDIIRTLEGPIVLVESMEDEEAAQRELWTRMRNAVRDVLDQTTLADLLKHSTDSELTDGYMFYI
B4: Lmo2168 putative lactoylglutathione lyase (protein, UniProt Q8Y5A1 1-129)
chain: MTAKMLHTCIRVKNLTESITFYEKALGLKEVRRKDFPDFEFTLVYMAFEEGGFELELTYNYDQKEAYDLGNGYGHLAVGVLDVRALLKEHQEAGFTVTDLKGLPGEDPFYYFLTDPDGYKTEIIQDGAL
B5: Lmo2182 ferrichrome ABC transporter (protein, UniProt Q8Y587 1-259)
chain: MEVRDVNFSYNGTDAILKNVSFTIQKNKINTIVGPNGSGKSTLLEILARLLSPNSGDVLLEGKSIFEWKAKEFAQNVAIVHQSNVLPNELMVKELLYFGRLPYKNWRMTRTKEDDLAVERALMQTELTEKAEKFVDSLSGGERQRVFIATALVQDTPILLLDEPTTFLDMYFQLEILELVKRLNQEENLTIVMILHDLNQALMYSDHLIVMKNGEVVAKGEPEELLTTDLIAETYGVVADVLNDANNGKYIVPQRRKEF
B6: HrcA (protein, UniProt B8DE36 1-345)
chain: MLTERQLLIFRAIIDHFTWTIQPVGSKNLLKEKGLPYSSATIRNEMGVLEEYGFIEKTHSSSGRVPSEKGYRFYVDYLLQPKKLDKSDRQMIRSFFSENYYEMEGLIQNSALMLSDLTNYTSILLGPEATKNHLSGFRFVPINNFQAMLILITDQGHVDNHLVTIPEGTTLSDIERMVNILNERLVGLSLDDLKVQIPMEVKELLGKHVRNYESFMHVFSDSFAQASQQKVYFGGKTNILNQPEFHDINKVREMLHLMEEEQDVYELFRDIPDGLQVKIGRENNNSLMEDCSIITATYNIAGERVGGIVLLGPTRMEYSRMMGLVDVMSRDLTDVLTKLYRDNQN
B7: glycerol-3-phosphate dehydrogenase GlpD (enzyme, UniProt Q8Y7I4 1-558)
chain: MVQLFSAFDRETIERNLQEEKFDLVIVGGGITGAGIALDATSRGMSVALVEMGDFASGTSSRSTKLVHGGLRYLQQFEIKEVADLGKERAIVYENGPHVTTPEWMMLPFHKGGNMGKTTASFGIRLYDYLAGVKKNERRKILSAKETLAKNPFVKKDGLKGSGYYVEYRTDDARLTIEVMKKAVELGANAINYTKAEHFLYDDNKQVVGVTVTDRLSGKAYDIKGHRVINAAGPWVDKVRKLDYATNNKHLRLTKGIHLVIDKQKFPMEQAVYFDTPDGRMVFAIPRDKKVYVGTTDTVYDEAVINPKALESDHNYVIKAINYMFPDVHITEKDIESSWAGVRPLIYEEGKDPSEISRKDEVWFSESGLITMAGGKLTGYRKMAEKLLDDVSKTLAKETGKKYKTVQTKHLPISGGDIGGSEQLEAFLSKKAKEGNNRFGWTLEEGREMAKRFGSNIDQLFTYAQEHKEQNETTLPNSLYAELRYSIQHEAVTTPIDFLLRRTGYLLFDMPYLLEWKDAVVDEMAKQFHWSDDVKQTYIEELNIQINDAREPADWHDR
B8: MreB (protein, UniProt Q8Y6H3 1-330)
chain: MFGTTTIGIDLGTANILVYSKEKGIILNEPSVVALNTNDGTVLAIGQEAKEMIGKTPTSISAVRPMKDGVIADFDLTSGLLREIMRRISVSGVRKPNVVVCTPTGATSVERRAISDAVRSTGARSVVLIEEPVAAAIGADLPVAEPVANVIVDIGGGTSEIAIISYGGVVSSTSIRTGGDHMDEEIIQYIRKNYNLLIGQTTAERIKMELGYAPIEHVTQTADIRGRDLLTGLPKTIQVSSTEIQSALAETLQRILEAIRNTLELCPPELSGDIVDRGIILSGGGSLLQGFRDWLVEEIDVPVHMAPSPLESVAIGTGRSLVFADKLAKN
B9: Lmo1387 pyrrolysin-5-carboxylate reductase (enzyme, UniProt Q8Y7A2 1-279)
chain: MAKIGFIGFGSMASLIATKIIETEVATPEEIILYSNSKNEHFNQFYTKYPTAELADNEAEIFTKADHSFVCKLPLAVLPLMKDCAAVLTPDRHVVSIAAGVSTSDIIEITPGLQVSKLIPSLTTAVNVGTTLIAHAETVNQTNTSWLETTFEHFGHVMTIREENMDIASDLTSSSPGIIAAIFEQFVEAALRRSSLSDAEVFQMINFALAGTSKLLVEEDYTFSGLIQRVATKDGTTAEGVELSKAQLPNFFDELLDRTQNKYASSEKEIQAQKRELLS
B10: Lmo1813 L-serine deaminase (enzyme, UniProt Q8Y684 1-220)
chain: MKFNSVFDIIGPVMIGPSSSHTAGASRIGAIARAVFNEQPSQVDIHLYGSFAKTYKGHGTDVALIGGLLGFEPDDPRMKESPKLAEEWGMRIQFIEEVEEPPHPNTVKLVLKHGMQQMTLIGASIGGGKVEIIRLNEFELEFTGTAPAILILHQDKFGAIAAVSSVIADHKINIGQMKVSRKVKGDEALMVIEVDQQVEQALISKIAELSGIYQVASVMI
B11: Lmo2712 gluconate kinase (enzyme, UniProt Q8Y3W7 1-504)
chain: MTSKPYIMGVDIGTSSTKAVLFNQRGEVIFRQATHYELITDETGKAEESPTEIFDAVLTSIQAVMKNINTEELAGISFSSAMHSLIMVGSNGELLTECITWADGRSSETLEKVKRDNYLFQLYEATGTPIHPMSPFAKICWLKEEKPTLFKRTEKFVDIKSYILYRLFGVWVMDESLASGTGLYNIMEHDWEFEAMEIVKLTPDFLPKVVPETYQLAGVKKEYAELMGIPENLPFIIGGSDGALANIGIQATGQNDVTITVGTSGAVRKLTDQFQIDSRGRTFCYGAGDGYFIAGGAVNNGGKVVEWGLQQFGSEAEISRRDFASFIAKIEEVPPGAAGLLFQPYLLGERAPFWTNDIRGGFVGLTINHTKAHFIRAILEGVAFNLAEVYEAVSAPDDIIYVTGGISAHDAWCKLLADILNREIRVPHTIEGSSLGAAIIGMRSLGILKDLNLKHTLPIKAVYHPSENVLKYAELRLIFKQVTTQLMSSYSQLNSWQKKFDINS
B12: FhuC (protein, UniProt Q8Y5U5 1-274)
chain: MKDLHTDNLQISYDKRIIVDGLDIAIPANKITALVGANGSGKSTILKTMSRLMKPSKGAVYLDGKTIHSQPTRDVAKQLAILPQNPSAPDGLTVFELISYGRSPHQSSFKSITAKDREIIFWSLRVTNLTEFADRPIDSLSGGQRQRAWIAMALAQETDVLFLDEPTTFLDMTHQLDVLNLLKQLNQSENRTIVMVVHDLNHASRYAHHMIAIKEGKVIAEGTPTSVMTEQTLEDVFNIKADILIDPRSGVPLCLPYETCNGCEIVKELDSIAK

What was measured:
[1] = target: ClpP2, endogenous in L. monocytogenes (L. monocytogenes EGD-e (endogenous)); assay: affinity purification with mass spectrometry
[2] = target: ClpP1, endogenous in L. monocytogenes (L. monocytogenes EGD-e (endogenous)); assay: affinity purification with mass spectrometry

| Binder | binding [1] | binding [2] |
| --- | --- | --- |
| B1 | binds | – |
| B2 | binds | – |
| B3 | binds | – |
| B4 | binds | – |
| B5 | binds | – |
| B6 | binds | – |
| B7 | binds | – |
| B8 | binds | – |
| B9 | binds | – |
| B10 | binds | – |
| B11 | binds | – |
| B12 | – | binds |
